Some entries share one result that the patent states for a list of compounds.
Molecular target: human Maxi K channel (BK channel), KCNMA1 (KCa1.1) and beta1 (KCNMB1) subunits (Homo sapiens, UniProt Q12791)
Settings: read-out: EC50 value, […]; CHO K1 cells stably transfected with KCNMA1 and KCNMB1; membrane potential dye, FLIPR Tetra; 70 mM KCl depolarisation; triplicate

Protein sequences, listed by entry. Tags and fused reporters are not part of them. Residues count along the entry.
UniProt Q12791, 1-1178 isoform Q12791-5: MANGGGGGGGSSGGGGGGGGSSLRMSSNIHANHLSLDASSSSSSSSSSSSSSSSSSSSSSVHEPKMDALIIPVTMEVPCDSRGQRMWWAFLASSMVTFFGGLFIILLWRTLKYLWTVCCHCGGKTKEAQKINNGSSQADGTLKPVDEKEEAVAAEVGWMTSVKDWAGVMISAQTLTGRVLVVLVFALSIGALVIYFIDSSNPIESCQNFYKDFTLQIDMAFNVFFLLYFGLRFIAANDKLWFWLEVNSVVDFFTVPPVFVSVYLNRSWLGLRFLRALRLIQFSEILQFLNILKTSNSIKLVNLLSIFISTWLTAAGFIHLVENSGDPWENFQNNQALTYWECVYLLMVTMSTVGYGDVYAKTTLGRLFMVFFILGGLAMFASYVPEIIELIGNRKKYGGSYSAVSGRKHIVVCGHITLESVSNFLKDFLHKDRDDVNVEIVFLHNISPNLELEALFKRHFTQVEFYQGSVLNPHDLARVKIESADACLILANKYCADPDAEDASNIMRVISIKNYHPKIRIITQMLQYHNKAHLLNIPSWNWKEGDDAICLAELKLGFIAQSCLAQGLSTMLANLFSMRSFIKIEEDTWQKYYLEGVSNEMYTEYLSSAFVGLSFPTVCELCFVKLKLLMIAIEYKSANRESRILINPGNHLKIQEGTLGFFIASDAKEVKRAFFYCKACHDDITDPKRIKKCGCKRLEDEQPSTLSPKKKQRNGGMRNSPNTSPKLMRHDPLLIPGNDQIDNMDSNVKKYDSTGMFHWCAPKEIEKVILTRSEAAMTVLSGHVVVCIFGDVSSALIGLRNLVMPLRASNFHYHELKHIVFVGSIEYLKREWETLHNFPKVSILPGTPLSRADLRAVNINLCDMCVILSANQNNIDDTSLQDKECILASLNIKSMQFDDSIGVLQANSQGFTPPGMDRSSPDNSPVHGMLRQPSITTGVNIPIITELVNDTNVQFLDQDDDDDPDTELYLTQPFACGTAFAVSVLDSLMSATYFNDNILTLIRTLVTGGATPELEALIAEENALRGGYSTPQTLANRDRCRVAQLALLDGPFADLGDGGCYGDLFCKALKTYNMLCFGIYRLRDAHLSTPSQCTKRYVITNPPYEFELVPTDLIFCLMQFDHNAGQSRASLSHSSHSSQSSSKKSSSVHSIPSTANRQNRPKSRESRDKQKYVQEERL

| Structure (SMILES) | EC50 |
| --- | --- |
| CN(C)c1c(C(=O)N[C@H]2CCOc3ccccc32)cnc2c1ccn2-c1cccc(Cl)c1F [Compound 24] | > 30 µM |
| CN(C)c1c(C(=O)N[C@H]2CCOc3ccccc32)cnc2c1ccn2-c1cccc(Cl)c1F [Compound 27] | > 30 µM |
| CN(C)c1c(C(=O)N[C@H]2CCc3ccccc32)cnc2c1ccn2-c1cc(Cl)cc(Cl)c1 [Compound 36] | > 30 µM |

Source: patent US12479841B2, “Anthelmintic compounds comprising azaindoles structure” (Intervet Inc., priority 2019, dated 2025)
